# Laboratory results reported in patent US7371812B2, “Antiangiogenic peptides” (Children's Medical Center Corporation, priority 2003, dated 2008).
# At least one compound was matched to its structure with a doubt left.
# System: Capillary EC
# Experiment: Apoptosis assay (TUNEL, DAPI)
# Format: cell-based, bovine
# Conditions: bFGF-stimulated, 6 hours; Loop 6 at IC50 dose, wortmannin 100 mM
# Protocol: In situ detection of cell death was determined using terminal deoxynucleotidyl transferase dUTP nick-end labeling (TUNEL) following manufacturer's instructions (In Situ Cell Death Detection Kit, Roche Applied Science, Indianapolis, Ind.). Capillary EC were plated at a density of 10,000 cells per well on pre-gelatinized Lab-Tek Chamber Slides (Nalge Nunc, Naperville, Ill.) in DMEM supplemented with 5% calf serum and allowed to attach for 24 hours. The next day, cells were treated with fresh media supplemented with 1 ng/ml bFGF and challenged with an IC50 dose of Loop 6 or […] wortmannin, a dose previously reported to induce apoptosis of capillary E (Flusberg et al., 2001). Cells stimulated with bFGF alone were also used as controls. All samples were tested in duplicate. After 6 hours, the cells were rinsed with PBS and then fixed in 4% paraformaldehyde for 1 hour at room temperature. Fixed cells were again rinsed with PBS and permeabilised with 0.1% Triton X-100 in 0.1% sodium citrate on ice for 2 minutes. After two more rinses in PBS, the cells were exposed to TUNEL reaction mixture and incubated at 37° C. […] Apoptotic nuclei were detected using a Nikon Eclipse TE300 microscope (Nikon Instruments, Melville, N.Y.).
smiles,measurement,value
"COC[C@H]1OC(=O)c2coc3c2[C@@]1(C)C1=C(C3=O)[C@@H]2CCC(=O)[C@@]2(C)C[C@H]1OC(C)=O [Wortmannin, reference compound]",induction of apoptosis (apoptotic nuclei),showed the expected apoptosis
